Source: patent US20160369115A1, “POLARIZING PLATE COMPOSITION, POLARIZING PLATE PROTECTIVE FILM, POLARIZER, POLARIZING PLATE, LIQUID CRYSTAL DISPLAY DEVICE, AND COMPOUND USED IN THE LIQUID CRYSTAL DISPLAY DEVICE” (FUJIFILM Corporation, priority 2014, published 2016)

What was measured:
[1] = Durability evaluation of polarizing plate, additive in polarizing plate protective film (Example 1); details: additive in protective film: Cellulose acylate, 25 μm, added amount 4.0 per 100 parts by mass of film resin; 410 nm
[2] = Evaluation of light-fast adhesiveness of polarizing plate protective film with hardcoat layer; details: additive in protective film: Cellulose acylate, 25 μm, added amount 4.0 per 100 parts by mass of film resin; light 96 hours, 60° C., 50% RH
[3] = Bleed-out properties in polarizer (haze evaluation); details: haze of polarizing plate; additive in polarizer, added amount 1.0 per 100 parts by mass of polyvinyl alcohol resin
[4] = Evaluation of durability of polarizing plate, additive in polarizer (Example 2); details: added amount 1.0 per 100 parts by mass of polyvinyl alcohol resin, 410 nm
[5] = Bleed-out properties in adhesive layer (haze evaluation); details: additive in adhesive layer, added amount 10.0 per 100 parts by mass of the polyvinyl alcohol resin, film thickness 5 μm
[6] = Evaluation of durability of polarizing plate, additive in adhesive layer (Example 3); details: added amount 10.0 per 100 parts by mass of the polyvinyl alcohol resin, film thickness 5 μm; for Durability of polarizer: amount of change of orthogonal transmittance (%) 60° C., 95%, 500 hours / Durability of polarizer: amount of change of orthogonal transmittance (%) 60° C., 95%, 1,000 hours / Durability of polarizer: amount of change of orthogonal transmittance (%) 80° C., Dry 500 hours / Durability of polarizer: amount of change of orthogonal transmittance (%) 80° C., Dry, 1,000 hours: 410 nm

SMILES | Durability of polarizer: amount of change of orthogonal transmittance (%) 60° C., 95%, 500 hours [1] | Durability of polarizer: amount of change of orthogonal transmittance (%) 60° C., 95%, 1,000 hours [1] | Durability of polarizer: amount of change of orthogonal transmittance (%) 80° C., Dry 500 hours [1] | Durability of polarizer: amount of change of orthogonal transmittance (%) 80° C., Dry, 1,000 hours [1] | Light-fast adhesiveness [2] | Bleed out [3] | Durability of polarizer: amount of change of degree of polarization (%) 60° C., 95%, 500 hours [4] | Durability of polarizer: amount of change of degree of polarization (%) 60° C., 95%, 1,000 hours [4] | Durability of polarizer: amount of change of degree of polarization (%) 80° C., Dry, 500 hours [4] | Durability of polarizer: amount of change of degree of polarization (%) 80° C., Dry, 1,000 hours [4] | Durability of polarizer: amount of change of orthogonal transmittance (%) 60° C., 95%, 500 hours [4] | Durability of polarizer: amount of change of orthogonal transmittance (%) 60° C., 95%, 1,000 hours [4] | Durability of polarizer: amount of change of orthogonal transmittance (%) 80° C., Dry 500 hours [4] | Durability of polarizer: amount of change of orthogonal transmittance (%) 80° C., Dry, 1,000 hours [4] | Bleed out [5] | Durability of polarizer: amount of change of degree of polarization (%) 60° C., 95%, 500 hours [6] | Durability of polarizer: amount of change of degree of polarization (%) 60° C., 95%, 1,000 hours [6] | Durability of polarizer: amount of change of degree of polarization (%) 80° C., Dry, 500 hours [6] | Durability of polarizer: amount of change of degree of polarization (%) 80° C., Dry, 1,000 hours [6] | Durability of polarizer: amount of change of orthogonal transmittance (%) 60° C., 95%, 500 hours [6] | other results
O=C1NC(=O)N(Cc2ccccc2)C(=O)C1c1ccccc1 (stereo not shown) [Organic acid 1, reference compound] | A+ (The amount of change of the orthogonal transmittance before and after the elapse of time was less than 0.4%.) | A (The amount of change of the orthogonal transmittance before and after the elapse of time was equal to or greater than 1.0% and less than 1.4%.) | A+ (The amount of change of the orthogonal transmittance before and after the elapse of time was less than 0.1%.) | A (The amount of change of the orthogonal transmittance before and after the elapse of time was equal to or greater than 0.5% and less than 0.8%.) | C (The number of cells peeled off among 100 cells was 21 to 30.) | C (The haze was equal to or greater than 0.7%.) | A+ (The amount of change of the degree of polarization before and after the elapse of time was less than 0.05%.) | B (The amount of change of the degree of polarization before and after the elapse of time was equal to or greater than 4.0% and less than 6.0%.) | A+ (The amount of change of the degree of polarization before and after the elapse of time was less than 0.05%.) | B (The amount of change of the degree of polarization before and after the elapse of time was equal to or greater than 2.0% and less than 4.0%.) | A+ (The amount of change of the orthogonal transmittance before and after the elapse of time was less than 0.1%.) | B (The amount of change of the orthogonal transmittance before and after the elapse of time was equal to or greater than 1.0% and less than 1.6%.) | A+ (The amount of change of the orthogonal transmittance before and after the elapse of time was less than 0.05%.) | B (The amount of change of the orthogonal transmittance before and after the elapse of time was equal to or greater than 0.3% and less than 0.4%.) | C (The haze was equal to or greater than 0.7%.) | A+ (The amount of change of the degree of polarization before and after the elapse of time was less than 0.05%.) | A (The amount of change of the degree of polarization before and after the elapse of time was equal to or greater than 1.0% and less than 4.0%.) | A+ (The amount of change of the degree of polarization before and after the elapse of time was less than 0.05%.) | A (The amount of change of the degree of polarization before and after the elapse of time was equal to or greater than 0.1% and less than 2.0%.) | A+ (The amount of change of the orthogonal transmittance before and after the elapse of time was less than 0.1%.) | Durability of polarizer: amount of change of orthogonal transmittance (%) 60° C., 95%, 1,000 hours [6]: A (The amount of change of the orthogonal transmittance before and after the elapse of time was equal to or greater than 0.5% and less than 1.0%.); Durability of polarizer: amount of change of orthogonal transmittance (%) 80° C., Dry 500 hours [6]: A+ (The amount of change of the orthogonal transmittance before and after the elapse of time was less than 0.05%.); Durability of polarizer: amount of change of orthogonal transmittance (%) 80° C., Dry, 1,000 hours [6]: A (The amount of change of the orthogonal transmittance before and after the elapse of time was equal to or greater than 0.1% and less than 0.3%.)
Nc1c(F)c(F)c(C(=O)O)c(F)c1F [Organic acid 2, reference compound] | B (The amount of change of the orthogonal transmittance before and after the elapse of time was equal to or greater than 0.6% and less than 0.8%.) | B (The amount of change of the orthogonal transmittance before and after the elapse of time was equal to or greater than 1.4% and less than 1.6%.) | B (The amount of change of the orthogonal transmittance before and after the elapse of time was equal to or greater than 0.3% and less than 0.5%.) | B (The amount of change of the orthogonal transmittance before and after the elapse of time was equal to or greater than 0.8% and less than 1.0%.) | B (The number of cells peeled off among 100 cells was 11 to 20.) | B (The haze was equal to or greater than 0.3% and less than 0.7%.) | A (The amount of change of the orthogonal transmittance before and after the elapse of time was equal to or greater than 0.05% and less than 2.0%.) | B (The amount of change of the degree of polarization before and after the elapse of time was equal to or greater than 4.0% and less than 6.0%.) | A (The amount of change of the degree of polarization before and after the elapse of time was equal to or greater than 0.05% and less than 1.0%.) | B (The amount of change of the degree of polarization before and after the elapse of time was equal to or greater than 2.0% and less than 4.0%.) | A (The amount of change of the orthogonal transmittance before and after the elapse of time was equal to or greater than 0.1% and less than 0.4%.) | B (The amount of change of the orthogonal transmittance before and after the elapse of time was equal to or greater than 1.0% and less than 1.6%.) | A (The amount of change of the orthogonal transmittance before and after the elapse of time was equal to or greater than 0.05% and less than 0.1%.) | B (The amount of change of the orthogonal transmittance before and after the elapse of time was equal to or greater than 0.3% and less than 0.4%.) | A (The haze was less than 0.3%.) | A (The amount of change of the degree of polarization before and after the elapse of time was equal to or greater than 0.05% and less than 2.0%.) | B (The amount of change of the degree of polarization before and after the elapse of time was equal to or greater than 4.0% and less than 6.0%.) | A (The amount of change of the degree of polarization before and alter the elapse of time was equal to or greater than 0.05% and less than 1.0%.) | B (The amount of change of the degree of polarization before and after the elapse of time was equal to or greater than 2.0% and less than 4.0%.) | A (The amount of change of the orthogonal transmittance before and after the elapse of time was equal to or greater than 0.1% and less than 0.4%.) | Durability of polarizer: amount of change of orthogonal transmittance (%) 60° C., 95%, 1,000 hours [6]: B (The amount of change of the orthogonal transmittance before and after the elapse of time was equal to or greater than 1.0% and less than 1.6%.); Durability of polarizer: amount of change of orthogonal transmittance (%) 80° C., Dry 500 hours [6]: A (The amount of change of the orthogonal transmittance before and after the elapse of time was equal to or greater than 0.05% and less than 0.1%.); Durability of polarizer: amount of change of orthogonal transmittance (%) 80° C., Dry, 1,000 hours [6]: B (The amount of change of the orthogonal transmittance before and after the elapse of time was equal to or greater than 0.3% and less than 0.4%.)

Some compounds share one range, which may span the group rather than tell each member.
